Results published in the M2OR odorant receptor database.
Only a part is listed here, and it is no random draw. Calls are pooled over several reports, among them a noisy single-well screen. The list shows a part of the results.

What was measured:
Conditions in all cases: stereoisomer not certain
OR51I1 (Homo sapiens) = molecular target: T1, OR51I1 (Homo sapiens) (UniProt Q9H343)
T1 sequence (whole entry): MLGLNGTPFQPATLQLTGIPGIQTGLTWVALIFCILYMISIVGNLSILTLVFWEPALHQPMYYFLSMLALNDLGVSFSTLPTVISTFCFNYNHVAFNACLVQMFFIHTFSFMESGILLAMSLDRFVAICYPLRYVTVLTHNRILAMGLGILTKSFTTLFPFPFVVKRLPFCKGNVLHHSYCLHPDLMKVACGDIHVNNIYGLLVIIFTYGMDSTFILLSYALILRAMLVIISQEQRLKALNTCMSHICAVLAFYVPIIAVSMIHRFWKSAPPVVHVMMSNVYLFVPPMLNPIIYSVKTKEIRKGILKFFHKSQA
In short: (§1)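 Each entry records the cell line, G-protein, co-transfected protein and tags used. Methods varied with the source, often transient luciferase assays in mammalian cell lines. A receptor–molecule pair is called responsive (active) if the original authors judged its signal statistically different from baseline and non-responsive (inactive) otherwise.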

OR51I2 (Homo sapiens) = molecular target: T2, OR51I2 (Homo sapiens) (UniProt Q9H344)
T2 sequence (whole entry): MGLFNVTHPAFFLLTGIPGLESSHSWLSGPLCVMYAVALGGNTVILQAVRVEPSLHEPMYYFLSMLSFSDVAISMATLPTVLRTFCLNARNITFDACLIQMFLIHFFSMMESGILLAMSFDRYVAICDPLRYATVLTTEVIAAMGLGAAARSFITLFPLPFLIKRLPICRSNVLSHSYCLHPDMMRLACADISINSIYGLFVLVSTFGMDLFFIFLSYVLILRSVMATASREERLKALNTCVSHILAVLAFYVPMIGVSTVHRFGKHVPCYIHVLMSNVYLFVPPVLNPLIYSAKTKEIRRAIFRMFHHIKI
In short: as §1

OR51L1 (Homo sapiens) = molecular target: T3, OR51L1 (Homo sapiens) (UniProt Q8NGJ5)
T3 sequence (whole entry): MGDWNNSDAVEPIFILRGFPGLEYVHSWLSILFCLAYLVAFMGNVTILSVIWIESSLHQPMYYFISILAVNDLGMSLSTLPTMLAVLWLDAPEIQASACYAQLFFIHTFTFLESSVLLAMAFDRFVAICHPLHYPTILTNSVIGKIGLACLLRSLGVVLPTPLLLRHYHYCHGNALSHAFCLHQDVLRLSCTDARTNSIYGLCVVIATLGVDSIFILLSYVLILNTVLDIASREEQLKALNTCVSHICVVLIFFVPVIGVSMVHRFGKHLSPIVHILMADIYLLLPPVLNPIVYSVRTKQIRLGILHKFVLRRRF
In short: as §1

OR51S1 (Homo sapiens) = molecular target: T4, OR51S1 (Homo sapiens) (UniProt Q8NGJ8)
T4 sequence (whole entry): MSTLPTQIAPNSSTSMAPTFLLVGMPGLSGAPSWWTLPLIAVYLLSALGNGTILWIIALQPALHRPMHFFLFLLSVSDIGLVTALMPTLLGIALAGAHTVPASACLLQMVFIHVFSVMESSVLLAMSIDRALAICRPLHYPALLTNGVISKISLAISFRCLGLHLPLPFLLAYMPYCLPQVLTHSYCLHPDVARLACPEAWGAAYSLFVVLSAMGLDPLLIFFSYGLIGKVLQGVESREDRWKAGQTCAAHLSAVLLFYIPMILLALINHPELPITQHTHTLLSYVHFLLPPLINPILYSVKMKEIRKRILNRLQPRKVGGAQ
In short: as §1

OR52A4P (Homo sapiens) = molecular target: T5, OR52A4P (Homo sapiens) (UniProt A6NMU1)
T5 sequence (whole entry): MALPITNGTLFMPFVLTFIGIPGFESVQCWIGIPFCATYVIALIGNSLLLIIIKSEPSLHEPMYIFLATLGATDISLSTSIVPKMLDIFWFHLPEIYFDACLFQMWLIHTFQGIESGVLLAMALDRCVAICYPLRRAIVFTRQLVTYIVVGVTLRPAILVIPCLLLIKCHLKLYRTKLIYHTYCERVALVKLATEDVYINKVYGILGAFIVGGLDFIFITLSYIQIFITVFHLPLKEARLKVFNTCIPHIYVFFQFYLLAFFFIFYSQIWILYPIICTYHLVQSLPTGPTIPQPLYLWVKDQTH
In short: as §1

OR52A5 (Homo sapiens) = molecular target: T6, OR52A5 (Homo sapiens) (UniProt Q9H2C5)
T6 sequence (whole entry): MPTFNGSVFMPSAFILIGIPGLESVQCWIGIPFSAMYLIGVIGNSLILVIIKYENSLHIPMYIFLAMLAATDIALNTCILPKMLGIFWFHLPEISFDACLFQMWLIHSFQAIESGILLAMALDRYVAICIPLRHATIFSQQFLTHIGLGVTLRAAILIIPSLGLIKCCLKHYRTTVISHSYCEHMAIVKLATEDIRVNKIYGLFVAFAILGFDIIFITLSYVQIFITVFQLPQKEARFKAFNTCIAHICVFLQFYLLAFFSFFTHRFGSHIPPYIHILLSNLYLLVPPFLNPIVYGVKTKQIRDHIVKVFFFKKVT
In short: as §1

OR52B4 (Homo sapiens) = molecular target: T7, OR52B4 (Homo sapiens) (UniProt Q8NGK2)
T7 sequence (whole entry): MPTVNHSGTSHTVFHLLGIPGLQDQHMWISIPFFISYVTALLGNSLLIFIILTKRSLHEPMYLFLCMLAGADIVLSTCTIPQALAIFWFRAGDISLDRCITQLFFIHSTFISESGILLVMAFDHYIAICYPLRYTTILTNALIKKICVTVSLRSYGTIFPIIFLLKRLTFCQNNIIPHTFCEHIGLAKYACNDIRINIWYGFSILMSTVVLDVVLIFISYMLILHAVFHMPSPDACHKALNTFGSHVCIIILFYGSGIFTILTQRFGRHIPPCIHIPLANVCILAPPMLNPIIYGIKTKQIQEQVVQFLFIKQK
In short: as §1

OR52D1 (Homo sapiens) = molecular target: T8, OR52D1 (Homo sapiens) (UniProt Q9H346)
T8 sequence (whole entry): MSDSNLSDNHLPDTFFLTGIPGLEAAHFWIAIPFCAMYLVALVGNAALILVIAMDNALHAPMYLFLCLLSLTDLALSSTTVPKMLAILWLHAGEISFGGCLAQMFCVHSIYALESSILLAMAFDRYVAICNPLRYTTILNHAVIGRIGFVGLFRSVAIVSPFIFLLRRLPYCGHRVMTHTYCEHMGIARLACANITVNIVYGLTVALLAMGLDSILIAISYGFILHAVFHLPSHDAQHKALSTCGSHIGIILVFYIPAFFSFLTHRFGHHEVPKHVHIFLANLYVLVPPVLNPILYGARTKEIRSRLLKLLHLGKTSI
In short: as §1

OR52A1 (Homo sapiens) = molecular target: T9, OR52A1 (Homo sapiens) (UniProt Q9UKL2)
T9 sequence (whole entry): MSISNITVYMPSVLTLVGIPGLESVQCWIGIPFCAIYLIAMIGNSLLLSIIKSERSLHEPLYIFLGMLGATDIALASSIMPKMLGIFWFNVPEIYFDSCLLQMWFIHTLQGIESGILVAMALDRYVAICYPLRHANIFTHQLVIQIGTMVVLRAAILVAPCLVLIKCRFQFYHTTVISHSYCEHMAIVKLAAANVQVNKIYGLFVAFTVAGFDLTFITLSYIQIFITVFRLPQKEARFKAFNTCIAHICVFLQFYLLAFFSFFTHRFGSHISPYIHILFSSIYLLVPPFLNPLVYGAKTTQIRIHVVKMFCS
In short: as §1

OR52B2 (Homo sapiens) = molecular target: T10, OR52B2 (Homo sapiens) (UniProt Q96RD2)
T10 sequence (whole entry): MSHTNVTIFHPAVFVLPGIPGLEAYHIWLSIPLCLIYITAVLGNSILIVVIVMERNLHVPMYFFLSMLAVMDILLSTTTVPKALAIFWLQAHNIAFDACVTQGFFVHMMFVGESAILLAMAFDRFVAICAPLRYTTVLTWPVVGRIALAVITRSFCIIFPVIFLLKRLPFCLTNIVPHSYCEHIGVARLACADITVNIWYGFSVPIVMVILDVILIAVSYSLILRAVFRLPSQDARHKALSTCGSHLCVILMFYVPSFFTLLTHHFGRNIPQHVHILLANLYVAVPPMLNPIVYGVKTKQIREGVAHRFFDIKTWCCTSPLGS
In short: as §1

SMILES	odorant receptor agonist call (OR51I1 (Homo sapiens))	odorant receptor agonist call (OR51I2 (Homo sapiens))	odorant receptor agonist call (OR51L1 (Homo sapiens))	odorant receptor agonist call (OR51S1 (Homo sapiens))	odorant receptor agonist call (OR52A4P (Homo sapiens))	odorant receptor agonist call (OR52A5 (Homo sapiens))	odorant receptor agonist call (OR52B4 (Homo sapiens))	odorant receptor agonist call (OR52D1 (Homo sapiens))	odorant receptor agonist call (OR52A1 (Homo sapiens))	odorant receptor agonist call (OR52B2 (Homo sapiens))
CCCCCCCOC(C)=O	inactive	inactive	inactive	inactive	inactive	inactive	inactive	inactive		
CC12CCC(C1)C(C)(C)C2=O (configuration not stated)	inactive	inactive	inactive	inactive	inactive	inactive	inactive	inactive		
CC(C)C(=O)O	inactive	inactive	inactive	inactive	inactive	inactive	inactive	active		
CC12C=CCC1C1CCC3=CC(=O)CCC3(C)C1CC2 (configuration not stated)	inactive	inactive	inactive	inactive	inactive	inactive	inactive	inactive		
CCCCCCOC(=O)CCC	inactive	inactive	inactive	inactive	inactive	inactive	inactive	inactive		
CCCCCCCCC=O			inactive					inactive	active	inactive
CCCCCCCC=CC=O	inactive	inactive	inactive	inactive	inactive	inactive	inactive	inactive		
COc1cc(C=O)ccc1O	inactive	inactive	inactive	inactive	inactive	inactive	inactive	inactive		
O=C1CCCCCCCCCCCC(=O)OCCO1	inactive	inactive	inactive	inactive	active	active	inactive	inactive		
COC(=O)c1ccccc1		inactive	inactive				inactive	inactive		
CC(=O)OCC=C(C)CCC=C(C)C	inactive	inactive	inactive	active	active	active	inactive	inactive		
CC(=O)OC1CC2CCC1(C)C2(C)C (configuration not stated)	inactive	inactive	inactive	active	inactive	inactive	inactive	inactive		
CC(C)(O)CCCC1=CCC(C=O)CC1 (configuration not stated)	active		inactive	inactive	inactive	inactive		inactive		
C=CCSCC=C	inactive	inactive	inactive	inactive	inactive	inactive	inactive	inactive		

Copied from the list:
CCCCCCCCC=O – odorant receptor agonist call (OR52B2 (Homo sapiens)): inactive
COC(=O)c1ccccc1 – odorant receptor agonist call (OR52D1 (Homo sapiens)): inactive
